Results reported in US20110038885A1 (priority 2007, published 2011).
Numbered stars: 1 amine (or outer) side, 2 acyl side, 3 side chain; on linkers, the order of the positions; unused ones are H or OH. Bridge positions count the residues as written; N and C are the ends. Square brackets hold non-standard residues; d marks the D form. * marks the point of attachment. Diglycolyl = O=C(COCC(=O)[*:2])[*:1]; Glutaryl = O=C(CCCC(=O)[*:2])[*:1]; Suc = O=C(CCC(=O)[*:2])[*:1]; Isobutyryl = CC(C)C(=O)*; Octanoyl = CCCCCCCC(=O)*; Orn = NCCC[C@H](N)C(=O)O; Dab = NCC[C@H](N)C(=O)O; Dap = NC[C@H](N)C(=O)O; Hexanoyl = CCCCCC(=O)*; Aoc = NCCCCCCCC(=O)O

Assay: general procedure: Fmoc solid-phase peptide synthesis; Rink Amide MBHA resin (0.58 mmol/g or 0.78 mmol/g); Wang resin for C-terminal acids; DIC/HOBt
Conditions: whole synthesis; for purity (crude or final not stated) / final HPLC purity: analytical HPLC; for purity (crude or final not stated): scale of the general procedure 0.090 mmol; for final HPLC purity / crude mass / isolated mass: scale 0.09 mmol

Substance	purity (crude or final not stated) [%]	other results
H-[dC][dQ][dI][dW][dK][dQ][dK][dP][dD][dL][dC][dV][dE]K(Octanoyl)-OH (disulfide 1-11; SMILES CCCCCCCC(=O)NCCCC[C@H](NC(=O)[C@@H](CCC(=O)O)NC(=O)[C@H](NC(=O)[C@H]1CSSC[C@@H](N)C(=O)N[C@H](CCC(N)=O)C(=O)N[C@H]([C@H](C)CC)C(=O)N[C@H](Cc2c[nH]c3ccccc23)C(=O)N[C@H](CCCCN)C(=O)N[C@H](CCC(N)=O)C(=O)N[C@H](CCCCN)C(=O)N2CCC[C@@H]2C(=O)N[C@H](CC(=O)O)C(=O)N[C@H](CC(C)C)C(=O)N1)C(C)C)C(=O)O)	99	–
H-[dC][dQ][dI][dW][dK][dQ][dK][dP][dD][dL][dC][dV][dE][Aoc]-OH (disulfide 1-11; SMILES CC[C@@H](C)[C@H]1NC(=O)[C@@H](CCC(N)=O)NC(=O)[C@H](N)CSSC[C@H](C(=O)N[C@@H](C(=O)N[C@H](CCC(=O)O)C(=O)NCCCCCCCC(=O)O)C(C)C)NC(=O)[C@@H](CC(C)C)NC(=O)[C@@H](CC(=O)O)NC(=O)[C@H]2CCCN2C(=O)[C@@H](CCCCN)NC(=O)[C@@H](CCC(N)=O)NC(=O)[C@@H](CCCCN)NC(=O)[C@@H](Cc2c[nH]c3ccccc23)NC1=O)	99	–
H-[dK][dD]CLDPKQKWIQC-NH2 (disulfide 3-13; SMILES CC[C@H](C)[C@@H]1NC(=O)[C@H](Cc2c[nH]c3ccccc23)NC(=O)[C@H](CCCCN)NC(=O)[C@H](CCC(N)=O)NC(=O)[C@H](CCCCN)NC(=O)[C@@H]2CCCN2C(=O)[C@H](CC(=O)O)NC(=O)[C@H](CC(C)C)NC(=O)[C@@H](NC(=O)[C@@H](CC(=O)O)NC(=O)[C@H](N)CCCCN)CSSC[C@@H](C(N)=O)NC(=O)[C@H](CCC(N)=O)NC1=O)	94	–
Hexanoyl-CKWIQC-NH2 (disulfide 1-6; SMILES CCCCCC(=O)N[C@H]1CSSC[C@@H](C(N)=O)NC(=O)[C@H](CCC(N)=O)NC(=O)[C@H]([C@@H](C)CC)NC(=O)[C@H](Cc2c[nH]c3ccccc23)NC(=O)[C@H](CCCCN)NC1=O)	98	–
Isobutyryl-CKWIQC-NH2 (disulfide 1-6; SMILES CC[C@H](C)[C@@H]1NC(=O)[C@H](Cc2c[nH]c3ccccc23)NC(=O)[C@H](CCCCN)NC(=O)[C@@H](NC(=O)C(C)C)CSSC[C@@H](C(N)=O)NC(=O)[C@H](CCC(N)=O)NC1=O)	93.9	–
Isobutyryl-DKWIQK-NH2 (SMILES CC[C@H](C)[C@H](NC(=O)[C@H](Cc1c[nH]c2ccccc12)NC(=O)[C@H](CCCCN)NC(=O)[C@H](CC(=O)O)NC(=O)C(C)C)C(=O)N[C@@H](CCC(N)=O)C(=O)N[C@@H](CCCCN)C(N)=O)	80.3	–
Isobutyryl-DKWIQ[Dap]-NH2 (lactam 1-6; SMILES CC[C@H](C)[C@@H]1NC(=O)[C@H](Cc2c[nH]c3ccccc23)NC(=O)[C@H](CCCCN)NC(=O)[C@@H](NC(=O)C(C)C)CC(=O)NC[C@@H](C(N)=O)NC(=O)[C@H](CCC(N)=O)NC1=O)	–	final HPLC purity: 89%; crude mass: ˜65 mg; isolated mass: 4 mg
Isobutyryl-DKWIQ[Orn]-NH2 (lactam 1-6; SMILES CC[C@H](C)[C@@H]1NC(=O)[C@H](Cc2c[nH]c3ccccc23)NC(=O)[C@H](CCCCN)NC(=O)[C@@H](NC(=O)C(C)C)CC(=O)NCCC[C@@H](C(N)=O)NC(=O)[C@H](CCC(N)=O)NC1=O)	95.1	–
Isobutyryl-EKWIQK-NH2 (lactam 1-6; SMILES CC[C@H](C)[C@@H]1NC(=O)[C@H](Cc2c[nH]c3ccccc23)NC(=O)[C@H](CCCCN)NC(=O)[C@@H](NC(=O)C(C)C)CCC(=O)NCCCC[C@@H](C(N)=O)NC(=O)[C@H](CCC(N)=O)NC1=O)	83.9	–
Isobutyryl-EKWIQ[Dab]-NH2 (lactam 1-6; SMILES CC[C@H](C)[C@@H]1NC(=O)[C@H](Cc2c[nH]c3ccccc23)NC(=O)[C@H](CCCCN)NC(=O)[C@@H](NC(=O)C(C)C)CCC(=O)NCC[C@@H](C(N)=O)NC(=O)[C@H](CCC(N)=O)NC1=O)	65.8	–
Isobutyryl-EKWIQ[Dap]-NH2 (lactam 1-6; SMILES CC[C@H](C)[C@@H]1NC(=O)[C@H](Cc2c[nH]c3ccccc23)NC(=O)[C@H](CCCCN)NC(=O)[C@@H](NC(=O)C(C)C)CCC(=O)NC[C@@H](C(N)=O)NC(=O)[C@H](CCC(N)=O)NC1=O)	93.2	–
Isobutyryl-EKWIQ[Orn]-NH2 (lactam 1-6; SMILES CC[C@H](C)[C@@H]1NC(=O)[C@H](Cc2c[nH]c3ccccc23)NC(=O)[C@H](CCCCN)NC(=O)[C@@H](NC(=O)C(C)C)CCC(=O)NCCC[C@@H](C(N)=O)NC(=O)[C@H](CCC(N)=O)NC1=O)	88.3	–
Isobutyryl-KKWIQD-NH2 (lactam 1-6; SMILES CC[C@H](C)[C@@H]1NC(=O)[C@H](Cc2c[nH]c3ccccc23)NC(=O)[C@H](CCCCN)NC(=O)[C@@H](NC(=O)C(C)C)CCCCNC(=O)C[C@@H](C(N)=O)NC(=O)[C@H](CCC(N)=O)NC1=O)	77.5	–
Isobutyryl-KKWIQE-NH2 (lactam 1-6; SMILES CC[C@H](C)[C@@H]1NC(=O)[C@H](Cc2c[nH]c3ccccc23)NC(=O)[C@H](CCCCN)NC(=O)[C@@H](NC(=O)C(C)C)CCCCNC(=O)CC[C@@H](C(N)=O)NC(=O)[C@H](CCC(N)=O)NC1=O)	96.2	–
Isobutyryl-[Dab]KWIQD-NH2 (lactam 1-6; SMILES CC[C@H](C)[C@@H]1NC(=O)[C@H](Cc2c[nH]c3ccccc23)NC(=O)[C@H](CCCCN)NC(=O)[C@@H](NC(=O)C(C)C)CCNC(=O)C[C@@H](C(N)=O)NC(=O)[C@H](CCC(N)=O)NC1=O)	83.3	–
Isobutyryl-[Dab]KWIQE-NH2 (lactam 1-6; SMILES CC[C@H](C)[C@@H]1NC(=O)[C@H](Cc2c[nH]c3ccccc23)NC(=O)[C@H](CCCCN)NC(=O)[C@@H](NC(=O)C(C)C)CCNC(=O)CC[C@@H](C(N)=O)NC(=O)[C@H](CCC(N)=O)NC1=O)	82.4	–
Isobutyryl-[Dap]KWIQD-NH2 (lactam 1-6; SMILES CC[C@H](C)[C@@H]1NC(=O)[C@H](Cc2c[nH]c3ccccc23)NC(=O)[C@H](CCCCN)NC(=O)[C@@H](NC(=O)C(C)C)CNC(=O)C[C@@H](C(N)=O)NC(=O)[C@H](CCC(N)=O)NC1=O)	95.9	–
Isobutyryl-[Dap]KWIQE-NH2 (lactam 1-6; SMILES CC[C@H](C)[C@@H]1NC(=O)[C@H](Cc2c[nH]c3ccccc23)NC(=O)[C@H](CCCCN)NC(=O)[C@@H](NC(=O)C(C)C)CNC(=O)CC[C@@H](C(N)=O)NC(=O)[C@H](CCC(N)=O)NC1=O)	–	final HPLC purity: 84%; crude mass: ˜65 mg; isolated mass: 23 mg
Isobutyryl-[Orn]KWIQD-NH2 (SMILES CC[C@H](C)[C@H](NC(=O)[C@H](Cc1c[nH]c2ccccc12)NC(=O)[C@H](CCCCN)NC(=O)[C@H](CCCN)NC(=O)C(C)C)C(=O)N[C@@H](CCC(N)=O)C(=O)N[C@@H](CC(=O)O)C(N)=O)	99	–
Isobutyryl-[Orn]KWIQE-NH2 (lactam 1-6; SMILES CC[C@H](C)[C@@H]1NC(=O)[C@H](Cc2c[nH]c3ccccc23)NC(=O)[C@H](CCCCN)NC(=O)[C@@H](NC(=O)C(C)C)CCCNC(=O)CC[C@@H](C(N)=O)NC(=O)[C@H](CCC(N)=O)NC1=O)	87.4	–
Isobutyryl-[dC][dQ][dI][dW][dK][dC]-NH2 (disulfide 1-6; SMILES CC[C@@H](C)[C@H]1NC(=O)[C@@H](CCC(N)=O)NC(=O)[C@H](NC(=O)C(C)C)CSSC[C@H](C(N)=O)NC(=O)[C@@H](CCCCN)NC(=O)[C@@H](Cc2c[nH]c3ccccc23)NC1=O)	81.4	–
KWIQK-NH2 (linker N-5 via Glutaryl; SMILES CC[C@H](C)[C@@H]1NC(=O)[C@H](Cc2c[nH]c3ccccc23)NC(=O)[C@H](CCCCN)NC(=O)CCCC(=O)NCCCC[C@@H](C(N)=O)NC(=O)[C@H](CCC(N)=O)NC1=O)	99	–
KWIQK-NH2 (linker N-5 via Suc; SMILES CC[C@H](C)[C@@H]1NC(=O)[C@H](Cc2c[nH]c3ccccc23)NC(=O)[C@H](CCCCN)NC(=O)CCC(=O)NCCCC[C@@H](C(N)=O)NC(=O)[C@H](CCC(N)=O)NC1=O)	76	–
KWIQ[Dab]-NH2 (linker N-5 via Diglycolyl; SMILES CC[C@H](C)[C@@H]1NC(=O)[C@H](Cc2c[nH]c3ccccc23)NC(=O)[C@H](CCCCN)NC(=O)COCC(=O)NCC[C@@H](C(N)=O)NC(=O)[C@H](CCC(N)=O)NC1=O)	99.9	–
KWIQ[Dab]-NH2 (linker N-5 via Glutaryl; SMILES CC[C@H](C)[C@@H]1NC(=O)[C@H](Cc2c[nH]c3ccccc23)NC(=O)[C@H](CCCCN)NC(=O)CCCC(=O)NCC[C@@H](C(N)=O)NC(=O)[C@H](CCC(N)=O)NC1=O)	96.6	–
KWIQ[Dab]-NH2 (linker N-5 via Suc; SMILES CC[C@H](C)[C@@H]1NC(=O)[C@H](Cc2c[nH]c3ccccc23)NC(=O)[C@H](CCCCN)NC(=O)CCC(=O)NCC[C@@H](C(N)=O)NC(=O)[C@H](CCC(N)=O)NC1=O)	99.9	–
KWIQ[Dap]-NH2 (linker N-5 via Diglycolyl; SMILES CC[C@H](C)[C@@H]1NC(=O)[C@H](Cc2c[nH]c3ccccc23)NC(=O)[C@H](CCCCN)NC(=O)COCC(=O)NC[C@@H](C(N)=O)NC(=O)[C@H](CCC(N)=O)NC1=O)	88.9	–
KWIQ[Dap]-NH2 (linker N-5 via Glutaryl; SMILES CC[C@H](C)[C@@H]1NC(=O)[C@H](Cc2c[nH]c3ccccc23)NC(=O)[C@H](CCCCN)NC(=O)CCCC(=O)NC[C@@H](C(N)=O)NC(=O)[C@H](CCC(N)=O)NC1=O)	99.6	–
KWIQ[Dap]-NH2 (linker N-5 via Suc; SMILES CC[C@H](C)[C@@H]1NC(=O)[C@H](Cc2c[nH]c3ccccc23)NC(=O)[C@H](CCCCN)NC(=O)CCC(=O)NC[C@@H](C(N)=O)NC(=O)[C@H](CCC(N)=O)NC1=O)	97.2	–
